The values that follow come from patent US20230272082A1 (SENSEI BIOTHERAPEUTICS, published 2023).

Sequences of proteins named here, by UniProt entry; tags and fusion partners are left off. Residues count along the entry.
UniProt Q9H7M9, residues 33-194: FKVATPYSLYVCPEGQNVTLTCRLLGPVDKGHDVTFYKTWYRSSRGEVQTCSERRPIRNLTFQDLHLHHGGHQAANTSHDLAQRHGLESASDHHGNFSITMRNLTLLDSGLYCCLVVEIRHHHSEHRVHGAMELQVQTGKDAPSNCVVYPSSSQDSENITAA

No constants are given. Whether binding was seen depends on the method and setting. Some results given as binding are weak or reduced against the parent protein; the word gives no strength.

This assay concerns the target T1, PSGL-1 on primary T-cells (human) (UniProt Q14242).
T1 sequence (looked up): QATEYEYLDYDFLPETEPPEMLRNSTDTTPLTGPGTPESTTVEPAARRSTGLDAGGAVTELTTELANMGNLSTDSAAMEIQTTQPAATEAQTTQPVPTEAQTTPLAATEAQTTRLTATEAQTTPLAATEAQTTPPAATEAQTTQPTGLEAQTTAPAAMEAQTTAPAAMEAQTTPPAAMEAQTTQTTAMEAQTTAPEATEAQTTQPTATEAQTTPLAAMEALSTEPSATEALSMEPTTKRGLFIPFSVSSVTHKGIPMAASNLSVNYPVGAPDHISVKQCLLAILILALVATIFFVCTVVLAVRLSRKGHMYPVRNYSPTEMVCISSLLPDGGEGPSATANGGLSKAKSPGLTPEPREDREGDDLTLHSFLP
Briefly: dextramer staining of primary T-cells at pH 6.0, flow cytometry (FIG. 4A). On the technique in general: A flow cytometer gives signals particle by particle.

Take “VISTA-Dextramer-PE (from UniProt Q9H7M9 33-194)”: the binding entry was “binds”.
